Measurements reported in PubChem BioAssay AID1159578 (Peter MacCallum Cancer Centre, 2015)
Purpose: 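siRNA pools altering how lymphatic endothelial cells close a scratch wound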 (primary screen). Cells: human lymphatic endothelial cells. Reagents: siRNA pool against human genes, 40 nM. Duration: 48 h after transfection. Detection: 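Cells stained with dye and imaged after a scratch; covered wound area and nuclei counted, duplicates averaged, migration set against mock wells and turned into a robust z-score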. Direction: migration robust z-score: higher = faster migration into the scratch; migration relative to mock: higher = more scratch area covered than mock; nuclei per well: higher = more cells in the well. Rule for the call: 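Pools averaging fewer than 3300 nuclei are never called; remaining pools count as changed when migration robust z lies outside -2 to 2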. Calls: active = migration changed; inactive = no migration change, or too few cells.
The deposit covers about 18,000 reagents; below is a part drawn at random. Over the whole deposit, about 1,030 (5.7%) got an active call. 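Inactive calls also include pools with fewer than 3300 nuclei, whose migration was not assessed.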 Raw values are not corrected between plates. Entries without a mark were called inactive.

target gene	PubChem SID	migration robust z-score	migration class with cell-count check	migration relative to mock	nuclei per well, duplicate mean
COL10A1 (collagen type X alpha 1 chain)	SID255349022	-0.64	migration z between -2 and 2; enough cells	0.72	5166
UBE2E3 (ubiquitin conjugating enzyme E2 E3)	SID255355112	-1.04	migration z between -2 and 2; enough cells	0.6	5776
ZNF410 (zinc finger protein 410)	SID255359613	-0.82	migration z between -2 and 2; enough cells	0.68	5245
BCAT1 (branched chain amino acid transaminase 1)	SID255348512	-0.8	migration z between -2 and 2; enough cells	0.65	5494
FERRY3 (FERRY endosomal RAB5 effector complex subunit 3)	SID255359264	-0.01	migration z between -2 and 2; enough cells	0.88	6069
TNFRSF10B (TNF receptor superfamily member 10b)	SID255353817	0.2	migration z between -2 and 2; enough cells	0.94	6686
ATP6V1C2 (ATPase H+ transporting V1 subunit C2)	SID255364392	1.66	migration z between -2 and 2; enough cells	1.12	6198
LRWD1 (leucine rich repeats and WD repeat domain containing 1)	SID255364337	-0.26	migration z between -2 and 2; enough cells	0.82	5012
SF3B3 (splicing factor 3b subunit 3)	SID255356249	-1.32	migration z between -2 and 2; enough cells	0.55	4534
HCG27 (HLA complex group 27)	SID255364413	-0.66	migration z between -2 and 2; enough cells	0.72	7411
APEH (acylaminoacyl-peptide hydrolase)	SID255348336	0.21	migration z between -2 and 2; enough cells	0.84	5322
INSIG2 (insulin induced gene 2)	SID255357511	0.37	migration z between -2 and 2; enough cells	0.98	4820
SLC46A1	SID255362183	1.17	migration z between -2 and 2; enough cells	1.03	6440
TMF1 (TATA element modulatory factor 1)	SID255352902	0.24	migration z between -2 and 2; enough cells	0.85	5348
UBL7 (ubiquitin like 7)	SID255361633	-4.01	under 3300 nuclei; migration not judged	-0.13	2244
FOXH1 (forkhead box H1)	SID255353925	0.24	migration z between -2 and 2; enough cells	0.85	5928
MRPL46 (mitochondrial ribosomal protein L46)	SID255356827	-0.41	migration z between -2 and 2; enough cells	0.78	5738
YY2 (YY2 transcription factor)	SID255365841	1.46	migration z between -2 and 2; enough cells	1.27	5918
HAVCR2 (hepatitis A virus cellular receptor 2)	SID255361535	-1.04	migration z between -2 and 2; enough cells	0.6	5691
GDF6 (growth differentiation factor 6)	SID255365696	3.09 (active)	migration z above 2; enough cells	1.69	7057
HNRNPH3 (heterogeneous nuclear ribonucleoprotein H3)	SID255350251	-0.93	migration z between -2 and 2; enough cells	0.64	6126
CPXM2 (carboxypeptidase X, M14 family member 2)	SID255362472	0.5	migration z between -2 and 2; enough cells	0.9	5372
STX4 (syntaxin 4)	SID255352686	-1.5	migration z between -2 and 2; enough cells	0.5	6223
ITGA10 (integrin subunit alpha 10)	SID255353609	0.04	migration z between -2 and 2; enough cells	0.9	5542
CDX4 (caudal type homeobox 4)	SID255348861	0.73	migration z between -2 and 2; enough cells	0.95	6017
FLG (filaggrin)	SID255349715	-0.48	migration z between -2 and 2; enough cells	0.76	4876
EPHA1 (EPH receptor A1)	SID255349520	-0.05	migration z between -2 and 2; enough cells	0.8	3546
IGBP1 (immunoglobulin binding protein 1)	SID255350421	0.5	migration z between -2 and 2; enough cells	0.9	6618
GRAMD1C (GRAM domain containing 1C)	SID255358152	-0.19	migration z between -2 and 2; enough cells	0.84	3587
OARD1 (O-acyl-ADP-ribose deacylase 1)	SID255364298	-1.77	migration z between -2 and 2; enough cells	0.42	5404
ETHE1 (ETHE1 persulfide dioxygenase)	SID255356265	0.11	migration z between -2 and 2; enough cells	0.91	5682
CLEC4G (C-type lectin domain family 4 member G)	SID255365033	-1.57	migration z between -2 and 2; enough cells	0.48	5459
MAPK10 (mitogen-activated protein kinase 10)	SID255351819	-0.86	migration z between -2 and 2; enough cells	0.64	6225
NAXE (NAD(P)HX epimerase)	SID255362787	-0.81	migration z between -2 and 2; enough cells	0.68	5295
IFNB1 (interferon beta 1)	SID255350415	-0.41	migration z between -2 and 2; enough cells	0.78	5590
PAF1 (PAF1 component of Paf1/RNA polymerase II complex)	SID255358110	1.04	migration z between -2 and 2; enough cells	1.15	4506
ZNF37A (zinc finger protein 37A)	SID255353208	-0.52	migration z between -2 and 2; enough cells	0.75	4652
MGAT1	SID255350950	0.78	migration z between -2 and 2; enough cells	0.96	5460

The list goes on (2 carried over from the part before).
target gene	PubChem SID	migration robust z-score	migration class with cell-count check	migration relative to mock	nuclei per well, duplicate mean
ZNF37A (zinc finger protein 37A)	SID255353208	-0.52	migration z between -2 and 2; enough cells	0.75	4652
MGAT1	SID255350950	0.78	migration z between -2 and 2; enough cells	0.96	5460
GPR107 (G protein-coupled receptor 107)	SID255359575	0.44	migration z between -2 and 2; enough cells	0.89	6746
LRRC41 (leucine rich repeat containing 41)	SID255355124	-1.32	migration z between -2 and 2; enough cells	0.54	6398
IGFL1 (IGF like family member 1)	SID255365346	-0.88	migration z between -2 and 2; enough cells	0.66	6192
TGFBRAP1	SID255354242	1.32	migration z between -2 and 2; enough cells	1.06	5968
PPHLN1 (periphilin 1)	SID255357772	-0.77	migration z between -2 and 2; enough cells	0.68	5308
TMEM201 (transmembrane protein 201)	SID255364014	-1.68	migration z between -2 and 2; enough cells	0.45	5412
SCN9A (sodium voltage-gated channel alpha subunit 9)	SID255352309	-0.2	migration z between -2 and 2; enough cells	0.76	4998
EPB41 (erythrocyte membrane protein band 4.1)	SID255349514	-0.68	migration z between -2 and 2; enough cells	0.71	5927
SCGB1D4 (secretoglobin family 1D member 4)	SID255365843	-0.9	migration z between -2 and 2; enough cells	0.65	4424
PDHB (pyruvate dehydrogenase E1 subunit beta)	SID255351488	-0.6	migration z between -2 and 2; enough cells	0.69	4884
IQUB (IQ motif and ubiquitin domain containing)	SID255363602	-0.66	migration z between -2 and 2; enough cells	0.72	6874
COP1 (COP1 E3 ubiquitin ligase)	SID255359896	0.62	migration z between -2 and 2; enough cells	0.92	6622
PROKR2 (prokineticin receptor 2)	SID255362810	0.06	migration z between -2 and 2; enough cells	0.82	6805
COG1 (component of oligomeric golgi complex 1)	SID255357316	-0.06	migration z between -2 and 2; enough cells	0.86	5158
KCNK18 (potassium two pore domain channel subfamily K member 18)	SID255364989	0.24	migration z between -2 and 2; enough cells	0.85	6150
PTGR2 (prostaglandin reductase 2)	SID255363247	0.6	migration z between -2 and 2; enough cells	1.04	5786
MMP1 (matrix metallopeptidase 1)	SID255350991	0.24	migration z between -2 and 2; enough cells	0.85	4826
ESYT3 (extended synaptotagmin 3)	SID255361096	-0.6	migration z between -2 and 2; enough cells	0.73	5839
SYBU (syntabulin)	SID255358741	1.43	migration z between -2 and 2; enough cells	1.25	5848
